In publication PMC12040169 (PLOS Biology, 2025):
The other results are listed elsewhere or left out.

Test system: T1, CTL2-GFP (C. trachomatis L2/434/Bu, GFP-expressing)
T1 construct: L2/434/Bu, GFP-expressing
Set-up: species or system HeLa; Intracellular C. trachomatis growth in HeLa cells, bulk GFP fluorescence relative to DMSO
Details: bulk GFP, single well; 28.5 h, 10 µM; inhibitor

Point of comparison: `CCC(=O)NC(c1ccc(OC)c(OC)c1)c1ccc2cccnc2c1O` (stereo not shown) [CBK293926], “% of control remaining” value 81.1441%. Against it:
- CCc1n[nH]c(C2CN(Cc3nc4c(F)cccc4[nH]3)CCO2)n1 (stereo not shown) [CBK304117] — higher, 146.649%
- CCOC(=O)c1cnc(SC)nc1NCCc1c[nH]cn1 [CBK086623] — higher, 127.373%
- O=C(CSc1ccccn1)Nc1ccc2ccccc2c1 [CBK263860] — higher, 113.138%
- COc1ccccc1Cc1cccc(C2CCN(CC(=O)Nc3nccs3)CC2)n1 [CBK286227] — higher, 107.329%
- O=C(C1CCCC1)N1CCCC(c2nccnc2-c2cccc(C(F)(F)F)c2)C1 (stereo not shown) [CBK286221] — higher, 84.3725%
- COc1ccc(-c2ccc(CCC(=O)O)n2CCc2ccccc2)cc1 [CBK265929] — lower, 78.1184%
- CC(Cc1cccs1)C(=O)N1CCn2cnnc2C1 (stereo not shown) [CBK282109] — higher, 135.923%
- O=[N+]([O-])c1cc(S(=O)(=O)n2ccc3ccccc32)ccc1N1CCNCC1 [CBK024593C] — higher, 86.4818%
- O=C(Nc1ccc2ncccc2c1)c1ccc(F)cc1Cl [CBK159796] — higher, 106.813%
- Cc1cc(=O)n2ncnc2n1COCCO [CBK262919] — higher, 106.032%
- Clc1ccc2nc(-c3ccccn3)[nH]c2c1 [CBK000116] — lower, 32.6135%
- O=C(Nc1ncc(Cl)s1)C1CC(=O)N(C2CC2)C1 (stereo not shown) [CBK175551] — higher, 154.2%
- N#Cc1ccccc1/C=N/NC(=O)COc1ccc(-c2cc(-c3ccccc3)c3cc(Cl)ccc3n2)cc1 [CBK263337] — higher, 100%
- COC(=O)c1sccc1NS(=O)(=O)c1ccc2ccccc2c1 [CBK004500] — higher, 95.2246%
- CCc1nn(CC(=O)NC(C)C)c(=O)c2cc3ccsc3n12 [CBK284131] — higher, 133.539%
- CCOC(=O)Nc1ccc2c(c1)N(C(=O)CN(C)C)c1ccccc1S2 [CBK261290C] — higher, 83.0575%
- Cc1c(S(=O)(=O)Nc2ccc(C(=O)c3ccccc3)cc2)cnn1-c1ccccc1 [CBK051034] — higher, 174.562%
- O=C(C[C@@H]1CCNC[C@@H]1Cc1cc(-c2ccccc2)on1)Nc1cccc(O)c1 [CBK289149] — higher, 136.427%
- COc1ccc2oc(C(=O)NCCN3CCOCC3)c(C)c2c1OC [CBK269913C] — higher, 153.311%
- CC(=O)N(C)c1nc(-c2cccc(N(C)C)c2)ccc1C(=O)Nc1ccc(C(F)(F)F)cc1 [CBK076623] — higher, 104.762%
- CCc1nc2ccc(C(=O)NC3CCN(C)CC3)cn2c1N(C)C=O [CBK146594] — higher, 96.173%
- COc1ccc(-c2nc(-c3cccs3)cnc2N)cc1OC [CBK063981] — higher, 199.725%
- CCOC(=O)c1c(NC(=O)CSc2nnc3ccccn23)sc2c1CCCCC2 [CBK265685] — higher, 100%
- CC(NCC(=O)N1c2ccccc2NC(=O)CC1C)c1ccc(-c2ccccc2)cc1 (stereo not shown) [CBK295155] — higher, 169.888%
- OCCN1CCN(c2ncnc3scc(-c4ccccc4)c23)CC1 [CBK287582] — higher, 163.045%
- NC(=O)NC(CC(=O)N1CCN(c2nccs2)CC1)c1cccc(Br)c1 (stereo not shown) [CBK304548] — higher, 123.708%
- c1cc(-c2nccnc2OC2CCCCC2)ccn1 [CBK106727] — higher, 100%
- CN(Cc1ccccc1)c1nccnc1-c1ccc(F)c(Cl)c1 [CBK037997] — higher, 180.905%
- CCc1nnc(NS(=O)(=O)c2ccc(NCc3cc(Cl)ccc3O)cc2)s1 [CBK200051] — lower, 77.0639%
- O=C(c1ccccc1F)N1CCCC(c2n[nH]c3ncccc23)C1 (stereo not shown) [CBK282672] — higher, 123.04%
- CCc1cc(Br)ccc1S(=O)(=O)NCCC#N [CBK044760] — higher, 97.8417%
- Cc1cc(C)c2cc(CNC3CC3)c3nn(C)c(=O)n3c2c1 [CBK283186] — higher, 112.647%
- O=C(CCc1ccco1)N1CCCCC1c1nc2ccccc2[nH]1 (stereo not shown) [CBK283711] — higher, 121.74%
- CCC(CC)C(=O)N(C)c1c(C)nc2ccc(C(=O)N3CCN(S(=O)(=O)CC)CC3)cn12 [CBK146524] — higher, 137.042%
- Cc1ccc2[nH]c(Nc3nc(C)cc(C)n3)nc2c1 [CBK263634] — higher, 118.932%
- O=S(=O)(Nc1nnn[nH]1)c1ccc(N2CCOCC2)nc1 [CBK062385] — higher, 101.701%
- Cc1ncsc1CCOc1cc(NC(C)C)ncn1 [CBK115884] — higher, 100%
- CC[C@H]1C[N@@]2CC[C@H]1C[C@@H]2CNS(=O)(=O)c1cccc(C#N)c1 [CBK288746] — higher, 145.768%
- O=C(O)c1ccccc1C1SCCCS1 [CBK016303] — higher, 147.936%
- CC1(C)CC(NCC(O)COc2cc(C(C)(C)C)c(O)c(C(C)(C)C)c2)CC(C)(C)N1 (stereo not shown) [CBK264564] — higher, 96.0619%
- O=C(O)c1cccc(CSc2nnc(Cc3ccccc3)o2)c1 [CBK268060] — higher, 136.225%
- O=C(Cc1ccccc1)NN1C(=O)/C(=C/c2ccccc2C(=O)O)SC1=S [CBK262975] — higher, 113.386%
- Cc1c(C(=O)NCCCN2CCOCC2)oc2c1C(=O)CCC2 [CBK270207] — higher, 122.91%
- CN1CCC[C@H]1c1nc(-c2ccc(-n3ccnc3)nc2)no1 [CBK288893] — higher, 128.757%
- COc1ccc(N2CCN(c3nc(NCCO)nc(OC)n3)CC2)cc1 [CBK265478] — higher, 100%
- CCCC(=O)Nc1ccc(-c2csc(N3CCCC3=O)n2)cc1 [CBK306088] — higher, 121.01%
- COc1ccc(CNC(=O)C2CCCN(S(C)(=O)=O)C2)cc1OC (stereo not shown) [CBK299830] — higher, 128.912%
- COc1ccc(Oc2nccnc2N2CCN(Cc3ccc4c(c3)OCO4)CC2)cc1OC [CBK083048T] — higher, 107.571%
- CN1CCCC(C(=O)Nc2cnc(-c3cccc(C(F)(F)F)c3)c(-c3cccnc3)n2)C1 (stereo not shown) [CBK036787] — higher, 180.566%
- O=c1[nH]nc2n1-c1ccccc1OC2 [CBK010583] — higher, 105.723%
- O=C(N[C@H]1C[C@H]2C(=O)Nc3ccc(-c4ccsc4)cc3C(=O)N2C1)c1ccccc1 [CBK289361] — higher, 103.779%
